# Results are given in words; binding and its absence hold for the method and conditions named. Binding seen in cells or lysates may run through a third protein. Here binding means that the protein was enriched with, or labelled near, the bait; the list need not be complete.
# Sequences of proteins named here, by UniProt entry; tags and fusion partners are left off. A change or cut given only in a name is not applied to a line headed by its entry. A line that says so, or that is headed by a name, gives the form on record, which may keep a tag or linker.
# UniProt Q5FBB7: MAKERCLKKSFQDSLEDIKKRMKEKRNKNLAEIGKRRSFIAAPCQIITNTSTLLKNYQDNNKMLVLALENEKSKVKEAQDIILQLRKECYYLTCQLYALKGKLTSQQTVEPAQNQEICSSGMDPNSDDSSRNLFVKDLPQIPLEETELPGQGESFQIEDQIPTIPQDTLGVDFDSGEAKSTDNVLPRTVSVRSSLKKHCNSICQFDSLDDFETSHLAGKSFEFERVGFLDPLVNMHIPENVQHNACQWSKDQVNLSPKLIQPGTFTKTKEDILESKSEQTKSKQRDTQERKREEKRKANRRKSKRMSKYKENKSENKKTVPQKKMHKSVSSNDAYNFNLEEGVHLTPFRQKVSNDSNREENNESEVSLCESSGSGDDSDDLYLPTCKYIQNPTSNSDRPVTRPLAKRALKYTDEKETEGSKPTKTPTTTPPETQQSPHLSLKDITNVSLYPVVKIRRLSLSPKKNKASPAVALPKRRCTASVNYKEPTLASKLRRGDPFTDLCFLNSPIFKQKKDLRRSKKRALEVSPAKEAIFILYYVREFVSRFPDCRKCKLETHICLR
# TurboID‐hSgo1 4A (Q5FBB7, form named): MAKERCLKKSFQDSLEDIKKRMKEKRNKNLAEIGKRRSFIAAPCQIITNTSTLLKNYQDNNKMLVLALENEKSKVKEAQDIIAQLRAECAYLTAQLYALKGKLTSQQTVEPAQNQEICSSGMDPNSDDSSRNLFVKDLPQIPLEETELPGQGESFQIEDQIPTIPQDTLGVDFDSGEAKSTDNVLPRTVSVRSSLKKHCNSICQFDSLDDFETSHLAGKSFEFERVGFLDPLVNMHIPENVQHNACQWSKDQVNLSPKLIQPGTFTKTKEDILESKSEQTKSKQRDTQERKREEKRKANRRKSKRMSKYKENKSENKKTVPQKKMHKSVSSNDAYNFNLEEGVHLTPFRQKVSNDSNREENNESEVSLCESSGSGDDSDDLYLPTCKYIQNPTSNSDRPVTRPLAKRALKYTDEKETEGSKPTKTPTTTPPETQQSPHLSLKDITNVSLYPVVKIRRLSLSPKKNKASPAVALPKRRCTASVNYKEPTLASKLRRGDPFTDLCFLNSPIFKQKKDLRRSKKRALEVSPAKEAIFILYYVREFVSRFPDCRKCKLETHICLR
# TurboID‐hSgo1 3A (Q5FBB7, form named): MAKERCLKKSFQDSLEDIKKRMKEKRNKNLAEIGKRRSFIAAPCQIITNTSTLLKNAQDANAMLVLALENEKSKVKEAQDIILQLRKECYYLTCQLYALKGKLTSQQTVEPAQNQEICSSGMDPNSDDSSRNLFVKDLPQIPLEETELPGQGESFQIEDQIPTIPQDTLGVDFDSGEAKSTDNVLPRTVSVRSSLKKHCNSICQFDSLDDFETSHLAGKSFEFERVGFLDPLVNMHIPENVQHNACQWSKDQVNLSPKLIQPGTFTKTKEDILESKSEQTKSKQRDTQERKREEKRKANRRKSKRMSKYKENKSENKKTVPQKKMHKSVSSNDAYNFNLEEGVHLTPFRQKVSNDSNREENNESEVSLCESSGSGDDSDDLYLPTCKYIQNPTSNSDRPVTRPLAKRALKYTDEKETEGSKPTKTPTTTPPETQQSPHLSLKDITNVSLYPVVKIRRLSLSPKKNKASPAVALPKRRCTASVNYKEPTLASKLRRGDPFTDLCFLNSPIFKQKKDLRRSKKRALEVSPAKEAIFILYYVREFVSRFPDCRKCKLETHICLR
# UniProt Q96GD4: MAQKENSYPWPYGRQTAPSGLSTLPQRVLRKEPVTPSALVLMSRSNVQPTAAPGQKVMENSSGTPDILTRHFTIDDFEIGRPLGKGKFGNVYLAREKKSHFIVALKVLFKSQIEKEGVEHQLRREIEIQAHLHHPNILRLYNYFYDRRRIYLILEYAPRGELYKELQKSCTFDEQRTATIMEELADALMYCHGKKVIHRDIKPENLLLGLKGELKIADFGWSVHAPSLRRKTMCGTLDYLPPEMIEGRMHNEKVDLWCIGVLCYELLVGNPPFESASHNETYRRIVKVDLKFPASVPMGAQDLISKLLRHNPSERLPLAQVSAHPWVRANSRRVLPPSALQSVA
# UniProt Q9NQS7: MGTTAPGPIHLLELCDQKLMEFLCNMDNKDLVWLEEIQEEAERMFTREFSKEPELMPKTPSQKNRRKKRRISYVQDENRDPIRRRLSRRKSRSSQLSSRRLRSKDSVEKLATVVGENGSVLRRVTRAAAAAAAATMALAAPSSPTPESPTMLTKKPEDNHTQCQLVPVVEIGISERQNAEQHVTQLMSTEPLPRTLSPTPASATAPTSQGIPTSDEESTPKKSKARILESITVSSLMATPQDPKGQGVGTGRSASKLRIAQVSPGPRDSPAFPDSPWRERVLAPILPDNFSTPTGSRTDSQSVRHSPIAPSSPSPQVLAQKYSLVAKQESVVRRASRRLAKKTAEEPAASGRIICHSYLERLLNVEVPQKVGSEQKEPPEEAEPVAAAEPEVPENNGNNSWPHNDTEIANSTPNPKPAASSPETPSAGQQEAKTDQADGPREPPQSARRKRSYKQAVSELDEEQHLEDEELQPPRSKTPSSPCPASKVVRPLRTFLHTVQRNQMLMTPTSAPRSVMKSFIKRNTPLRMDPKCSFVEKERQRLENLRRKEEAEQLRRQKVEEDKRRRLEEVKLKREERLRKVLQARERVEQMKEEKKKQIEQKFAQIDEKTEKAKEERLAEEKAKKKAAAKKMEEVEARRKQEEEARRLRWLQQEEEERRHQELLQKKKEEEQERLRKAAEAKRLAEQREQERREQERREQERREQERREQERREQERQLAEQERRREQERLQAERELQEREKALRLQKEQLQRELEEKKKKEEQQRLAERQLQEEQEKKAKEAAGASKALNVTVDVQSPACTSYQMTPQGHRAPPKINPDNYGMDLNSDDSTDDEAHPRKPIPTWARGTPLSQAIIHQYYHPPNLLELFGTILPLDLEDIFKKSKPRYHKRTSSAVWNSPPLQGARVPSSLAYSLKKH
# Tests used:
# Assay in all cases: proximity labelling; TurboID-hSgo1 WT, 3A, 4A in stable HeLa cells, 50 µM biotin 1 h, mitotic shake-off, RIPA lysis, streptavidin agarose, washes with 2% SDS, label-free LC-MS/MS
# TurboID‐hSgo1 WT (human) = TurboID‐hSgo1 WT (human) (UniProt Q5FBB7)
# TurboID‐hSgo1 4A (human) = TurboID‐hSgo1 4A (human) (UniProt Q5FBB7)
# TurboID‐hSgo1 3A (human) = TurboID‐hSgo1 3A (human) (UniProt Q5FBB7)
binding (TurboID‐hSgo1 WT (human)),binding (TurboID‐hSgo1 4A (human)),binding (TurboID‐hSgo1 3A (human)),Molecule
binds,binds,binds,Aurora B (endogenous) (from UniProt Q96GD4 1-344)
binds,binds,binds,INCENP (endogenous) (from UniProt Q9NQS7 1-918)
binds,binds,,"Borealin (endogenous) (protein, UniProt Q53HL2 1-280) MAPRKGSSRVAKTNSLRRRKLASFLKDFDREVEIRIKQIESDRQNLLKEVDNLYNIEILRLPKALREMNWLDYFALGGNKQALEEAATADLDITEINKLTAEAIQTPLKSAKTRKVIQVDEMIVEEEEEEENERKNLQTARVKRCPPSKKRTQSIQGKGKGKRSSRANTVTPAVGRLEVSMVKPTPGLTPRFDSRVFKTPGLRTPAAGERIYNISGNGSPLADSKEIFLTVPVGGGESLRLLASDLQRHSIAQLDPEALGNIKKLSNRLAQICSSIRTHK"

# Reference: paper PMC8256288
